Results from PubChem BioAssay AID504444 (National Center for Advancing Translational Sciences (NCATS), 2011).
The campaign covered roughly 360,000 compounds. About 7,500 (2.1%) were called active. The inconclusive results got no clear call from the source; some entries with a clear call stand among them for comparison. Calls follow the shape of the dose curve; as a rule, active = well fitted inhibition curve with a large enough effect; inconclusive = small, poorly fitted or top-dose-only effect, or effect the other way; inactive = flat fitted curve, though single readings scatter. Potencies beside an inconclusive call are fits to weak or partial responses and may not hold up.
% is scaled to controls: 0 for no effect and ±100 for the full control effect; potency is read from the fitted curve at half-maximal effect.

Experiment: Nrf2 qHTS screen for inhibitors; also: nearly all actives have a fitted effect of over 60% in size
Settings: A549 ARE-Fluc reporter, luciferase luminescence, 18-24 h; activity change, negative = inhibition: at 46 µM (top of the series)
How it was run: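 In this cell-based qHTS, ARE-driven firefly luciferase in A549 cells reports Nrf2 activity; the luminescent signal after BugLite lysis is the measured value, with a prior CellTiter-Fluor read for cell health.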
For `CCCn1c(N2CCN(CC(=O)c3c(C)n(C)c4ccc(OC)cc34)CC2)nc2c1c(=O)[nH]c(=O)n2C`, the Potency was inconclusive: 16.4 µM [falling, partial curve].
With `CC(C)C[C@H](NC(=O)c1nc[nH]c1C(=O)N1CCN(C(=O)OC(C)(C)C)CC1)C(=O)OC(C)(C)C` the Potency was inconclusive: 0.731 µM [activator, full curve].
In the case of `CCOC(=O)c1c(C)[nH]c(N=Nc2cccc(OC)c2)c1C`, the Potency is reported as inconclusive: 7.31 µM [activator, partial curve].
In the case of `COc1ccc(NC(=O)CCC(=O)Nc2nnc(CC(C)C)s2)cc1Cl`, the Potency is reported as inconclusive: 29.1 µM [activator, partial curve, poor fit].
With `COc1ccc(Cl)cc1C(=O)NNC(=O)c1cccs1` the Potency was inconclusive: 8.2 µM [activator, partial curve].
In the case of `O=C(Nc1ccc(Cl)c(Cl)c1)Nc1ccccn1`, the Potency is reported as inconclusive: 2.59 µM [activator, partial curve].
For `O=C(CSCc1cnn(-c2ccccc2)c1-n1cccc1)NCc1ccccc1F`, the Potency was inconclusive: 6.51 µM [falling, partial curve].
With `O=C(Nc1ccc2oc(-c3cccnc3)nc2c1)c1ccc(-c2cccc(OC(F)(F)F)c2)o1` the Potency was active: 1.46 µM.
With `COc1cccc(N2CCN(C(=O)c3ccc(CS(=O)c4cccc(Cl)c4)o3)CC2)c1` (centres undefined) the Potency was inconclusive: 9.2 µM [activator, partial curve].
In the case of `O=C(NC(=S)NNC(=O)c1cnccn1)c1ccc(F)cc1`, the Potency is reported as inconclusive: 4.61 µM [falling, partial curve].
With `O=C(NC(C(=O)c1ccccc1)N1CCOCC1)c1cccs1` (centres undefined) the Potency was inconclusive: 7.31 µM [activator, partial curve].
In the case of `C=CCNc1nc(-c2c(C)nc3sccn23)cs1`, the “activity change, negative = inhibition” value is reported as inactive: -16.2%.
For `Cc1cccc(/C=N/c2sc3c(c2C#N)CCN(Cc2ccccc2)C3)c1O`, the Potency was inconclusive: 29.1 µM [activator, partial curve, poor fit].
In the case of `C[C@]12c3[nH]c4cc(-c5ccco5)ccc4c3CCN1C(=O)[C@@H](CC(=O)NCc1cccc(C(F)(F)F)c1)C[C@@H]2C(=O)N1CCOCC1`, the Potency is reported as inconclusive: 29.1 µM [falling, single point].
In the case of `COc1ccc2oc3ccc(OC)cc3c(=O)c2c1`, the Potency is reported as inconclusive: 5.17 µM [activator, partial curve].
In the case of `O=C(Nc1ccc(N2CCCC2)c(Cl)c1)c1ccco1`, the Potency is reported as inconclusive: 0.58 µM [activator, full curve, poor fit].
In the case of `COc1ccc(NC(=O)CN(C)C(=O)CSCc2ccc(C)cc2)cc1`, the Potency is reported as inconclusive: 5.8 µM [falling, partial curve, poor fit].
In the case of `COc1ccc(-c2csc3ncnc(Oc4cccc5ccc(C)nc45)c23)cc1`, the Potency is reported as inconclusive: 10.3 µM [falling, partial curve, poor fit].
In the case of `CCOc1cc(/C=C2\C(=O)ON=C2c2ccccc2)cc(Br)c1O`, the Potency is reported as inconclusive: 29.1 µM [falling, single point].
With `Cc1cccc(Nc2nc(N3CCOCC3)nc(N3CCOCC3)n2)c1` the “activity change, negative = inhibition” value was inactive: 10.6%.
For `O=S(=O)(Cc1ccccc1)N(O)c1ccccc1`, the “activity change, negative = inhibition” value was inactive: 12.1%.
For `N#Cc1nc(NCCCCO)nc(Nc2ccccc2)n1`, the “activity change, negative = inhibition” value was inactive: -28.1%.
In the case of `S=c1nc[nH]c2c1ncn2-c1ccccc1`, the Potency is reported as inconclusive: 0.082 µM [falling, full curve, poor fit].
With `Cc1onc(-c2ccccc2)c1C(=O)Nc1ccc(-c2nnc3n2CCCCC3)cc1` the Potency was inconclusive: 3.26 µM [falling, full curve, poor fit].
For `COc1ccc(NC(=O)CN2CCN(CC(=O)Nc3ccccc3Cl)CC2)c(OC)c1`, the Potency was inconclusive: 29.1 µM [falling, partial curve, poor fit].
In the case of `CC(C)Oc1ccc(CNC(=O)c2ccc3nc(SCc4ccc(F)cc4)n(C)c3c2)cc1`, the “activity change, negative = inhibition” value is reported as inactive: 10.8%.
With `CN1/C(=C\C(=O)COC(=O)c2ccccc2O)C(C)(C)c2ccccc21` the Potency was inconclusive: 29.1 µM [falling, single point].
In the case of `CCc1ccccc1-n1c(SCC(=O)NC)nnc1-c1ccco1`, the “activity change, negative = inhibition” value is reported as inactive: -6.82%.
For `Cc1c(S(=O)(=O)N2CCCCC2)c(=O)n(C)c(=O)n1C`, the “activity change, negative = inhibition” value was inactive: 5.72%.
In the case of `COc1ccccc1NC(CC(=O)c1ccccc1)C(=O)OCC(=O)c1ccc(Br)cc1` (centres undefined), the Potency is reported as inconclusive: 7.31 µM [activator, partial curve, poor fit].
For `O=C(CCc1ccc(S(=O)(=O)N2CCOCC2)cc1)Nc1ccc(N2CCOCC2)cc1`, the Potency was inconclusive: 16.4 µM [activator, partial curve, poor fit].
In the case of `COc1ccc(Cl)cc1NC(=O)c1cc(S(=O)(=O)N2CCc3ccccc32)cn1C`, the Potency is reported as inconclusive: 18.4 µM [falling, partial curve, poor fit].
With `CCSc1nnc(NC(=O)[C@H](C)NC(=O)c2ccccc2Cl)s1` the Potency was inconclusive: 32.6 µM [activator, single point].
In the case of `CC(C)Cc1cc(C(=O)Nc2cccnc2)no1`, the Potency is reported as inconclusive: 8.2 µM [activator, partial curve].
For `COc1ccc(CCN(C(=O)C(F)(F)F)C(C(=O)NC2CCCC2)c2cccs2)cc1` (centres undefined), the Potency was inconclusive: 18.4 µM [falling, partial curve, poor fit].
With `Cn1c(=O)n(C)c2cc(NC(=O)COc3ccc(F)cc3)ccc21` the Potency was inconclusive: 20.6 µM [falling, single point].
In the case of `CN(C)c1nc(N)nc(CSc2nc3cc(Cl)ccc3o2)n1`, the Potency is reported as inconclusive: 6.51 µM [activator, partial curve].
In the case of `CCOc1ccc(C(=O)C(C)OC(=O)C2CCN(c3ccc(C(F)(F)F)cn3)CC2)cc1` (centres undefined), the Potency is reported as inconclusive: 29.1 µM [falling, single point].
For `CCOc1ccc(C2NC(=O)NC(C)=C2C(=O)OCc2ccccc2)cc1` (centres undefined), the Potency was inconclusive: 29.1 µM [falling, single point].
With `CCCN1C(C(=O)c2ccccc2)=C(OC(=O)c2ccc(F)cc2)c2ccccc2S1(=O)=O` the Potency was inconclusive: 23.1 µM [falling, single point].
With `O=C(Nc1cccc(S(=O)(=O)NCc2ccco2)c1)c1cccc(Cl)c1` the Potency was inconclusive: 32.6 µM [falling, single point].
For `CS(=O)(=O)N(CCc1ccccc1)CC(=O)N1CCN(Cc2ccccc2)CC1`, the Potency was inconclusive: 29.1 µM [falling, single point].
In the case of `CCN(CC)CCCN(Cc1cc2cc(OC)ccc2[nH]c1=O)C(=O)Nc1ccc(F)cc1`, the “activity change, negative = inhibition” value is reported as inactive: 8.24%.
In the case of `Cn1c(/C=C/c2ccc(Br)cc2)c([N+](=O)[O-])c(=O)n(C)c1=O`, the Potency is reported as active: 20.6 µM.
For `O=C(N/N=C/c1ccsc1)c1c[nH]c2ccccc12`, the Potency was inconclusive: 1.84 µM [activator, full curve, poor fit].
For `Cc1ccc(S(=O)(=O)C2CCN(c3nc(-c4cccs4)nc4ccccc34)CC2)cc1`, the “activity change, negative = inhibition” value was inactive: 8.86%.
With `CC(SC1=NCCS1)C(=O)Nc1nnc(-c2ccc(Br)cc2)s1` (centres undefined) the “activity change, negative = inhibition” value was inactive: -20.1%.
For `O=S(=O)(NCC(Nc1ccccc1)c1ccccc1)c1ccc(Cl)cc1` (centres undefined), the Potency was inconclusive: 32.6 µM [falling, single point].
With `c1csc(-c2nnc3ccccn23)c1` the Potency was inconclusive: 1.16 µM [falling, full curve].
For `CCCCCn1c(=O)[nH]c2cc(C(=O)N3CCN(c4ccc(F)cc4)CC3)ccc2c1=O`, the Potency was inconclusive: 2.06 µM [falling, full curve].
In the case of `Cc1ccc(C)n1-c1nn(S(=O)(=O)c2ccccc2)c2cccc(F)c12`, the Potency is reported as inconclusive: 11.6 µM [activator, partial curve].
With `Cc1nc(SCC(=O)NCC2COc3ccccc3O2)c2c(C)c(C)sc2n1` (centres undefined) the Potency was active: 20.6 µM.
In the case of `Cc1ccc(C(=O)N2CCN(c3ccc(NC(=O)c4cccs4)cc3)CC2)cc1`, the “activity change, negative = inhibition” value is reported as inactive: -7.38%.
With `COc1cccc2cc(C(=O)N3CCc4ccccc4C3)c(=O)oc12` the Potency was inconclusive: 25.9 µM [activator, single point].
In the case of `CC(=O)Nc1ccc(Nc2cc(C)nc3c(-c4ccc(Cl)cc4)c(C)nn23)cc1`, the Potency is reported as inconclusive: 29.1 µM [falling, single point].
For `Cc1ccc(NC(=O)NCc2c(C)nn(C)c2C)cc1Cl`, the Potency was inconclusive: 11.6 µM [activator, partial curve, poor fit].
In the case of `COc1ccc(Nc2nc(-c3cccs3)cs2)c(OC)c1`, the Potency is reported as inconclusive: 2.59 µM [activator, partial curve].
In the case of `COC(=O)c1nn2c(C(F)(F)F)cc(-c3ccc(Br)o3)nc2c1Br`, the Potency is reported as inconclusive: 3.66 µM [falling, full curve, poor fit].
In the case of `O=[N+]([O-])c1cc(-c2nnc(N3CCOCC3)c3ccccc23)ccc1N1CCOCC1`, the Potency is reported as inconclusive: 18.4 µM [falling, single point].
With `NC(=O)NC(=O)C(Nc1ccc(N2CCCCC2)cc1)c1ccccc1` (centres undefined) the Potency was inconclusive: 29.1 µM [activator, single point].
With `O=C(NCc1ccco1)c1ccc2c(c1)N(Cc1ccc(F)cc1)C(=O)c1ccccc1S2=O` (centres undefined) the “activity change, negative = inhibition” value was inactive: -30.6%.
For `CCOc1ccc(N=C2NC(=O)S/C2=C\c2ccc(N(C)C)cc2)cc1`, the Potency was inconclusive: 0.58 µM [activator, partial curve, poor fit].
For `Cc1cc(C)c2c(CN3CCC(C)CC3)cc(=O)oc2c1`, the Potency was inconclusive: 13 µM [activator, partial curve].
For `Cc1cc(SCC(=O)c2ccc(O)c(O)c2)n2nc(C)c(-c3ccccc3)c2n1`, the Potency was inconclusive: 7.31 µM [falling, partial curve, poor fit].
